Results as given in PubChem BioAssay AID504467 (National Center for Advancing Translational Sciences (NCATS), 2011).
Hit rate of the full screen: of about 330,000 compounds, about 7,700 (2.3%) were called active. The shares of active, inactive and inconclusive entries below differ from those in the screen. The call rests on the fitted dose curve; in most records, active means well fitted inhibition curve with a large enough effect; inconclusive means small, poorly fitted or top-dose-only effect, or effect the other way; inactive means flat fitted curve, though single readings scatter. Potencies of inconclusive entries are doubtful fits and often do not repeat.

test: qHTS screen for small molecules that inhibit ELG1-dependent DNA repair in human embryonic kidney (HEK293T) cells expressing luciferase-tagged ELG1; conditions: HEK293T ELG1-luciferase reporter, luminescence, 16 h, DNA damage induced by 5-fluorouridine; series mostly up to 46.1 µM; further: nearly all actives have a fitted effect of over 55% in size
In short: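 Cells (2,000 per well) received 5-fluorouridine plus test compound or DMSO and were incubated 16 hr at 37 °C, 5% CO2. Luciferase activity was read by luminescence 30 min after ONE-Glo addition; signal suppression marked inhibition of damage-induced ELG1 function.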
Potency means the concentration at half of the fitted maximal effect.

Row | Compound | Potency
1 | O=C1CN(S(=O)(=O)c2cc(C(F)(F)F)ccc2Cl)CCN1 | inactive
2 | CCOC(=O)c1[nH]c(C)c(/C(O)=C2\C(=O)C(=O)N(CCN(C)C)C2c2ccc(C)o2)c1C (stereo not drawn) | inconclusive: 35.5 µM [inhibitor, single point]
3 | Cc1ccc(CNC(=O)CCS(=O)(=O)c2cc3c(cc2Cl)NC(=O)CO3)cc1 | inactive
4 | COc1ccc(N2CCN(CC(O)COc3ccc(C)cc3C)CC2)cc1 (stereo not drawn) | inconclusive: 23.1 µM [inhibitor, single point]
5 | Cc1ccc2[nH]c3c(=O)n(CCCN4CCOCC4)cnc3c2c1 | inconclusive: 1.16 µM [inhibitor, single point]
6 | Cc1nn(-c2ccccc2)c(C)c1NC(=O)COC(=O)CC(C)c1ccccc1 (stereo not drawn) | inactive
7 | COc1cccc(C(=O)NCC(=O)N/N=C/c2cn[nH]c2-c2ccccc2)c1 | inactive
8 | O=C(OCC(=O)c1ccccc1Br)c1ccncc1 | inactive
9 | CC(C)(C)C(=O)NC1(C(F)(F)F)NC(=O)N(c2ccc(F)cc2)C1=O (stereo not drawn) | inactive
10 | CC1=C(C(=O)OC2CCCCCC2)C(c2ccc(C)o2)C2=C(CCCC2=O)N1 (stereo not drawn) | inconclusive: 18.4 µM [inhibitor, single point]
11 | N#Cc1c(NC(=O)c2nc3ncccn3n2)sc2c1CCCCC2 | inconclusive: 0.82 µM [activator, full curve]
12 | CCOc1ccccc1CNS(=O)(=O)c1ccc2c(c1)C(C)(C)C(=O)N2C | inactive
13 | COCCCNC(=O)CN(c1cc(OC)ccc1OC)S(=O)(=O)c1ccccc1 | inactive
14 | CN(C)S(=O)(=O)c1ccc(NC(=O)c2cc(-c3cccs3)nc3ccccc23)cc1 | active: 3.66 µM
15 | CCOC(=O)CSc1nc(=O)n2cc(C)ccc2n1 | inactive
16 | O=C1CC(N2CCC(Cc3ccccc3)CC2)C(=O)N1CCc1ccccc1 (stereo not drawn) | inactive
17 | Cc1nnnn1CC(=O)Nc1ccccc1[N+](=O)[O-] | inactive
18 | CCOC(=O)c1cc(S(=O)(=O)NC2CCN(C(=O)OCC)CC2)cn1C | inconclusive: 16.4 µM [inhibitor, partial curve, poor fit]
19 | COc1ccc(NC(=O)CCC(=O)Nc2cc(OC)c(NC(=O)c3cccs3)cc2OC)cc1 | inconclusive: 20.6 µM [inhibitor, single point]
20 | CC(C)(C)OC(=O)NCCCCCc1nnc(SCc2ccc(F)cc2)o1 | inconclusive: 20.6 µM [inhibitor, single point]
21 | COC(=O)[C@H](Cc1ccccc1)NC(=O)N1Cc2ccccc2C[C@H]1C(=O)OC | inactive
22 | O=C(CN1C(=O)c2ccccc2S1(=O)=O)N1CCc2ccccc21 | active: 20.6 µM
23 | Cn1c(N)c(C(=O)c2ccc(Oc3ccccc3)cc2)c(=O)n(C)c1=O | inconclusive: 18.4 µM [activator, partial curve]
24 | O=C(NC1CC2CCC1C2)c1ccc(CN2CCOCC2)cc1 (stereo not drawn) | inconclusive: 13 µM [activator, partial curve]
25 | CCOC(=O)C1CCN(c2ncnc3c(C)csc23)CC1 | inconclusive: 18.3 µM [activator, partial curve]

Row | Compound | Potency
26 | CC(C)c1cc(-c2n[nH]c(=S)n2Cc2ccccc2)cs1 | inactive
27 | CCc1ccc(C(=O)N2CCN(c3ccc(NC(=O)c4ccco4)cc3)CC2)cc1 | inactive
28 | O=C(c1cc(COc2ccc(F)cc2Cl)on1)N1CCCCCC1 | inconclusive: 9.2 µM [activator, partial curve]
29 | O=C(CCc1nnc(-c2ccc3c(c2)OCO3)o1)N1CCC(c2ccc(F)cc2)C1 (stereo not drawn) | inconclusive: 20.6 µM [activator, partial curve]
30 | Cc1nc(NCC2CCCO2)[nH]c(=O)c1CCC(C)C (stereo not drawn) | inactive
31 | O=C(c1ccc2c(=O)n(Cc3ccccc3)c(=S)[nH]c2c1)N1CCOCC1 | inactive
32 | O=C(COC(=O)c1ccc([N+](=O)[O-])o1)Nc1cccc(S(=O)(=O)N2CCCCC2)c1 | inactive
33 | CCOc1ccccc1N(CC(=O)Nc1ccccc1)S(=O)(=O)c1ccccc1 | inconclusive: 32.6 µM [inhibitor, single point]
34 | c1ccc(C(Cc2nc(-c3cccnc3)no2)c2ccccc2)cc1 | inconclusive: 29.1 µM [inhibitor, single point]
35 | CC(=O)c1ccc(OCc2cc(C(=O)N(C)Cc3cc(C)no3)no2)cc1 | inconclusive: 16.4 µM [activator, single point]
36 | Cc1cc(C)n(CC2CC(=O)N(c3ccc(F)c(Cl)c3)C2=O)n1 (stereo not drawn) | inactive
37 | CCn1ncc(/C=N\NC(=O)c2cc(-c3ccc(C)cc3C)nc3ccccc23)c1C | inconclusive: 13 µM [inhibitor, partial curve, poor fit]
38 | O=C(Nc1ncccc1Cl)c1ccc2c(c1)OCCO2 | inconclusive: 6.51 µM [activator, partial curve]
39 | O=C(O)Cn1nc(-c2ccccc2)cc1-c1ccccc1 | inconclusive: 29.1 µM [activator, partial curve, poor fit]
40 | Cn1c(CN2CCOCC2)nc2cc(NC(=O)c3ccc(Cl)cc3)ccc21 | inconclusive: 4.61 µM [inhibitor, full curve]
41 | CC(C)CC1(C)NC(=O)N(CC(=O)N2C(C)CCCC2C)C1=O (stereo not drawn) | inactive
42 | Cc1ncoc1C(=O)N1CCCC(C(=O)c2ccc(-c3ccccc3)c(F)c2)C1 (stereo not drawn) | inconclusive: 23.1 µM [inhibitor, single point]
43 | C=CC[C@H](CC(=O)N(CCO)Cc1ccccc1)C(=O)N[C@@H](COC(=O)[C@@H](CC=C)Cc1ccc(F)cc1)Cc1c[nH]c2ccccc12 | active: 20.6 µM
44 | CN1CCN(C(=O)c2ccc(CSc3ccc(Cl)cc3)cc2)CC1 | inactive
45 | O=[N+]([O-])c1ccc(Cl)c(S(=O)(=O)NC2=NCCC2)c1 | inconclusive: 18.3 µM [activator, partial curve, poor fit]
46 | COc1ccc(NC(=O)Cn2cnc3c(nnn3-c3ccc(C)cc3)c2=O)cc1 | inconclusive: 2.91 µM [activator, full curve]
47 | COc1ccc(N2C(=O)C(CC(=O)Nc3ccc(F)cc3)N(CCc3cccs3)C2=O)cc1 (stereo not drawn) | inconclusive: 18.4 µM [inhibitor, single point]
48 | Cc1nc(Nc2ccccc2C(F)(F)F)sc1C(=O)N(C)C | inconclusive: 14.6 µM [activator, partial curve]
49 | CC(=O)N(C)Cc1ccc(C(=O)CCl)cc1 | inconclusive: 18.3 µM [activator, single point]
50 | COc1ccc(/C=C/C(=O)N2CCC(c3ccccc3)C2)cc1 (stereo not drawn) | inactive

Among those listed so far, these contain a tert-butyl group.
Row | Compound | Potency
9 | CC(C)(C)C(=O)NC1(C(F)(F)F)NC(=O)N(c2ccc(F)cc2)C1=O (stereo not drawn) | inactive
20 | CC(C)(C)OC(=O)NCCCCCc1nnc(SCc2ccc(F)cc2)o1 | inconclusive: 20.6 µM [inhibitor, single point]

(list continues)

Row | Compound | Potency
51 | Brc1ccc2c(c1)[C@H]1OCC[C@H]1[C@@H](c1cccs1)N2 | active: 20.6 µM
52 | CCCCN(C(=O)C1CC1)C1CCS(=O)(=O)C1 (stereo not drawn) | inconclusive: 5.17 µM [activator, single point]
53 | CCOCCCNC(=O)c1[nH]c(C)c(C(C)=O)c1C | inconclusive: 29.1 µM [activator, single point]
54 | CN(C)C(=O)c1cc(C(=O)c2ccc(F)cc2F)c[nH]1 | inconclusive: 20.6 µM [activator, partial curve]
55 | N#Cc1ccc(NC(=O)COC(=O)CCNS(=O)(=O)c2ccccc2)cc1 | inconclusive: 23.1 µM [activator, partial curve, poor fit]
56 | COc1cccc(NC(=O)COC(=O)CCCC2=NS(=O)(=O)c3ccccc3N2)c1 | inconclusive: 20.6 µM [activator, partial curve, poor fit]
57 | O=C(NNc1cc(N2CCCC2)nc(N2CCCC2)n1)c1ccc([N+](=O)[O-])cc1 | inconclusive: 25.9 µM [inhibitor, single point]
58 | FC(F)(F)c1ccc(Cl)c(NC(=S)N/N=C/c2ccccc2C(F)(F)F)c1 | inactive
59 | CCOC(=O)C1C(C(=O)OC)=C(c2ccc(F)cc2)c2ccccc2N1S(=O)(=O)C(F)(F)F (stereo not drawn) | inconclusive: 14.6 µM [inhibitor, partial curve, poor fit]
60 | O=C(Nc1cccc(NC(=O)c2cncc(Br)c2)c1)c1cncc(Br)c1 | active: 20.6 µM
61 | CC(NC(=S)NCCCN1CCOCC1)C1CC2CCC1C2 (stereo not drawn) | inactive
62 | COc1cc(SC)ccc1C(=O)N1CCN(c2ccccc2OC)CC1 | inconclusive: 6.51 µM [inhibitor, partial curve, poor fit]
63 | COc1ccc(C2C(C#N)=C(N)Oc3n[nH]c(-c4ccccn4)c32)c(OC)c1OC (stereo not drawn) | inconclusive: 32.6 µM [activator, partial curve, poor fit]
64 | c1ccc(CSc2n[nH]c(-c3ccco3)n2)cc1 | inconclusive: 5.8 µM [activator, single point]
65 | CCOC(=O)c1ccc(S(=O)(=O)Nc2ccccc2-c2nnn(CC)n2)cc1 | inconclusive: 22.4 µM [inhibitor, single point]
66 | Clc1nc(N2CCOCC2)ncc1Br | inactive
67 | Cc1ccc(N)cc1NC(=O)CN1CCOCC1 | inactive
68 | COc1ccc2[nH]c(=O)c(CN(CC3CCCO3)C(=O)Nc3ccc(F)cc3)cc2c1 (stereo not drawn) | active: 7.31 µM
69 | CCCCOc1ccc(C(=O)Nc2ccc(CN3CCOCC3)cc2)cc1 | inactive
70 | O=C(O)c1ccc(/C=N/Nc2ncc(Cl)cc2Cl)cc1 | inconclusive: 6.51 µM [activator, single point]
71 | CCN(C1=NS(=O)(=O)c2ccccc21)N(CC)S(=O)(=O)c1ccc(C)cc1 | inconclusive: 29.1 µM [inhibitor, single point]
72 | CN(Cc1ccccc1)C(=O)COC(=O)C1CCN(S(=O)(=O)c2ccc3c(c2)OCCO3)CC1 | inactive
73 | CC(C)COc1ccc(-c2nnc(-c3ccncc3)o2)cc1 | inconclusive: 0.651 µM [activator, single point]

A draw from above in order of count of non-hydrogen atoms, largest number first:
Row | Compound | Potency
57 | O=C(NNc1cc(N2CCCC2)nc(N2CCCC2)n1)c1ccc([N+](=O)[O-])cc1 | inconclusive: 25.9 µM [inhibitor, single point]
71 | CCN(C1=NS(=O)(=O)c2ccccc21)N(CC)S(=O)(=O)c1ccc(C)cc1 | inconclusive: 29.1 µM [inhibitor, single point]
73 | CC(C)COc1ccc(-c2nnc(-c3ccncc3)o2)cc1 | inconclusive: 0.651 µM [activator, single point]
